In publication PMC9070983:
These are yes or no findings as the source states them, for the method shown. Binding seen in cells or lysates may run through a third protein.

The chains behind the UniProt entries cited, without tags or fusion partners.
UniProt Q04206: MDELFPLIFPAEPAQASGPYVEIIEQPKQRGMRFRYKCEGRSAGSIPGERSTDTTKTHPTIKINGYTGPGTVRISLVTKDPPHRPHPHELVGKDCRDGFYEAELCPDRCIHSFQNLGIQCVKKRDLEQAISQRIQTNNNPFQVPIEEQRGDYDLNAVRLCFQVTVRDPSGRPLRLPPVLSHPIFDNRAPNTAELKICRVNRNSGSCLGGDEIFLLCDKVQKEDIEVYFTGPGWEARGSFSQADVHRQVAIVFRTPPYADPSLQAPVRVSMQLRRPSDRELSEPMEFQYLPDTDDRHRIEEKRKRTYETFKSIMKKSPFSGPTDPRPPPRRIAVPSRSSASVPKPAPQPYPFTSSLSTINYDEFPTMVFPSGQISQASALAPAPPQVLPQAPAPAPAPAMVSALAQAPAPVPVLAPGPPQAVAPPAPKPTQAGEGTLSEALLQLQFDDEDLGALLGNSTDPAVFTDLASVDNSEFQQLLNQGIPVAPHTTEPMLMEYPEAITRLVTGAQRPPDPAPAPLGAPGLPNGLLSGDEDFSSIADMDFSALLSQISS

Molecular target: T1, HIV-1 Tat-interacting protein 110 (Tip110) (UniProt Q15020)
T1 sequence: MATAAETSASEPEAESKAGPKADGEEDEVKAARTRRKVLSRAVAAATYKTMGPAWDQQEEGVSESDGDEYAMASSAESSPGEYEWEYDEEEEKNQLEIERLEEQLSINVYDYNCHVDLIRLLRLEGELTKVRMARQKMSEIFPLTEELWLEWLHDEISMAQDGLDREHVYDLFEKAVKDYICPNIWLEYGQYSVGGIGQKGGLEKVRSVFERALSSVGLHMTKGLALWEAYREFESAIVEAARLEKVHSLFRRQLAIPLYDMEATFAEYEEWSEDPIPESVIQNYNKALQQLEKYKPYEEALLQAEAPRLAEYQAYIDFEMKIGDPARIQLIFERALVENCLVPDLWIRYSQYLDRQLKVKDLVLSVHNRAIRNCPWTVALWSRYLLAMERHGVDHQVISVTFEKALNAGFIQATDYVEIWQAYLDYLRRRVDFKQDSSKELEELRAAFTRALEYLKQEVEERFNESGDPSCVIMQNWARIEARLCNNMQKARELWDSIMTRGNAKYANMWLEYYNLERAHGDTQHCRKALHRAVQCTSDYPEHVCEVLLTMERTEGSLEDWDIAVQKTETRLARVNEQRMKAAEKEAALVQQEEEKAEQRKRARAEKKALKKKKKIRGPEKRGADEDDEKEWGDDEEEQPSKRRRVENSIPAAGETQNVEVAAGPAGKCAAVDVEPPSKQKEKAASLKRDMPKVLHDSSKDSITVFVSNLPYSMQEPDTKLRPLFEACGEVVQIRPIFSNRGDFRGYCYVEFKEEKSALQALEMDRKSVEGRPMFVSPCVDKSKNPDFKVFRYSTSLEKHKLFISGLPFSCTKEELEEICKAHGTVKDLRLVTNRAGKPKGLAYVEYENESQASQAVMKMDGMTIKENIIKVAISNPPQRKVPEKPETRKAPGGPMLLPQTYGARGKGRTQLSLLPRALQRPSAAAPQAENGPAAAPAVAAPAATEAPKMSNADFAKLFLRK
Assay: co-IP; 293T transfected with Tip110 or vector control, treated with TNF-α for 20 hr; 1 mg lysate with 1 μg primary antibody at 4°C overnight, protein A agarose beads; lysis buffer 50 mM Tris.HCl pH 8.0, 280 mM NaCl, 0.5% NP-40

binding: no binding
Substance: NF-κB p65 (from UniProt Q04206 1-551)
